This is an account of results in patent US20190262469A1 (priority 2015, published 2019).

By UniProt entry, the sequences of proteins in these tests, tags left out. Residues count along the entry.
UniProt P52799, residues 28-333: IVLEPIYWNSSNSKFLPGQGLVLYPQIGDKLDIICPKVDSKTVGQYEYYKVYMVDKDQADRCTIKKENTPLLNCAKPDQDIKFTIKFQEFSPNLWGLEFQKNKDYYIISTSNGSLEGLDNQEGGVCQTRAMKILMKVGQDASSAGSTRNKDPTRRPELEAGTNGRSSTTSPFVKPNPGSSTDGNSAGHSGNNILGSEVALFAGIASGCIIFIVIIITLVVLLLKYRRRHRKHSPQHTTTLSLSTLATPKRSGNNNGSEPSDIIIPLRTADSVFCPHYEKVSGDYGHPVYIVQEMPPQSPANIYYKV

The target of this test is human ephrin B2 (EB2) expressed on cells (CHO-K1 transfected to express ephrin B2) (human) (UniProt P52799). In words: immunofluorescence of peptide-displaying M13 phage bound to CHO-K1/ephrin B2 cells, detected with labelled anti-M13 pVIII antibody.

Results are given in words; binding and its absence hold for the method and conditions named. Some results given as binding are weak or reduced against the parent protein; the word gives no strength.

B1: SEQ ID NO 58 (peptide)
peptide: SILPYPY
Regarding B1, the binding entry was “binds”.

B2: QGAINHP (SEQ ID NO:53), 7-mer peptide displayed on M13 phage (peptide)
peptide: QGAINHP
Take B2: the binding entry is “binds”.

B3: QHIPKPP (SEQ ID NO:54), 7-mer peptide displayed on M13 phage (peptide)
peptide: QHIPKPP
For B3, the binding result is reported as “binds”.

B4: TGAILHP (SEQ ID NO:52), ephrin B2-targeting 7-mer peptide displayed on M13 phage (peptide)
peptide: TGAILHP
Take B4: the binding result was “binds”.

B5: QHIRKPP (SEQ ID NO:55), 7-mer peptide displayed on M13 phage (peptide)
peptide: QHIRKPP
As to B5, the binding result is “binds”.

B6: QHILNPP (SEQ ID NO:57), 7-mer peptide displayed on M13 phage (peptide)
peptide: QHILNPP
In the case of B6, the binding result is listed as “binds”.

B7: SEQ ID NO 59 (peptide)
peptide: ASYSGTA
For B7, the binding result was “binds”.
